Experimental data: PubChem BioAssay AID493246 (Drosophila RNAi Screening Center, 2011)

Assay: 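Genome-wide search for dsRNAs that reduce cell number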 (primary screen)
Cells: Drosophila Kc and S2R+ cells
Reagents: long dsRNA against Drosophila genes
Measured: 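Cell number per well after knock-down, printed as raw plate values; calls were based on per-plate z-scores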
Scale: Kc cell number and S2R+ cell number: higher = more cells remaining
Active means: 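Counted as a hit if cell number falls by a z-score of at least 3 within its plate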
The screen tested about 21,000 reagents; below is a random part of those that have a named target and a result. Over the whole deposit, 429 (2%) were called active. 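Values are raw and not normalised between plates; calls rest on per-plate z-scores that were not deposited.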 A plus sign joins genes that one reagent is predicted to hit. The record does not give: the amount of reagent, the time to read-out.

The opening 3 entries, to show the layout:
no.	gene	DRSC id	Kc cell number, rep 1	Kc cell number, rep 2	S2R+ cell number, rep 1	S2R+ cell number, rep 2	outcome
1	sqa	DRSC06693	1.32e6	1.33e6	1.05e6	1.10e6	inactive
2	CG10591	DRSC09748	1.39e6	1.48e6	1.26e6	1.00e6	inactive
3	Ekar	DRSC17161	1.54e6	1.47e6	1.07e6	1.17e6	inactive

The list itself, from the start:
no.	gene	DRSC id	Kc cell number, rep 1	Kc cell number, rep 2	S2R+ cell number, rep 1	S2R+ cell number, rep 2	outcome
1	sqa	DRSC06693	1.32e6	1.33e6	1.05e6	1.10e6	inactive
2	CG10591	DRSC09748	1.39e6	1.48e6	1.26e6	1.00e6	inactive
3	Ekar	DRSC17161	1.54e6	1.47e6	1.07e6	1.17e6	inactive
4	CG30095	DRSC07175	1.45e6	1.58e6	1.10e6	1.21e6	inactive
5	Atg10	DRSC06172	1.80e6	1.76e6	1.39e6	1.57e6	inactive
6	pb	DRSC12409	1.43e6	1.47e6	1.06e6	1.24e6	inactive
7	pb	DRSC12629	1.24e6	1.43e6	1.16e6	1.26e6	inactive
8	CG32718	DRSC17538	1.30e6	1.55e6	1.15e6	1.20e6	inactive
9	Slu7	DRSC14729	1.27e6	1.41e6	8.33e5	9.58e5	inactive
10	CG17110	DRSC15173	1.39e6	1.44e6	9.51e5	1.07e6	inactive
11	hoe2	DRSC00459	1.60e6	1.50e6	1.24e6	1.38e6	inactive
12	CG9316	DRSC03195	1.45e6	1.56e6	1.25e6	3.67e5	inactive
13	CG12426	DRSC14516	1.44e6	1.46e6	9.49e5	1.07e6	inactive
14	CG1602	DRSC06601	1.81e6	1.82e6	1.44e6	1.53e6	inactive
15	Ndfip	DRSC11201	1.52e6	1.57e6	1.23e6	1.31e6	inactive
16	Rheb	DRSC12148	1.46e6	1.53e6	8.96e5	1.04e6	inactive
17	Vang	DRSC07570	1.80e6	1.81e6	1.39e6	1.55e6	inactive
18	put	DRSC17039	1.45e6	1.50e6	1.19e6	1.26e6	inactive
19	CG13887	DRSC08357	1.25e6	1.28e6	1.06e6	1.15e6	inactive
20	CG8435	DRSC07179	1.22e6	1.37e6	1.04e6	1.05e6	inactive
21	Naa40	DRSC16265	1.42e6	1.45e6	1.01e6	1.09e6	inactive
22	CG5174	DRSC06920	1.46e6	1.51e6	1.14e6	1.17e6	inactive
23	LSm1	DRSC04458	1.57e6	1.60e6	1.21e6	2.80e5	inactive
24	CheA84a	DRSC12669	1.43e6	1.41e6	1.06e6	1.20e6	inactive
25	Ccp84Af	DRSC12591	1.46e6	1.67e6	1.42e6	1.55e6	inactive
26	CG14830	DRSC08876	1.79e6	1.76e6	1.25e6	1.40e6	inactive
27	CG14830	DRSC10200	1.49e6	1.38e6	1.02e6	1.16e6	inactive
28	CG9380	DRSC04549	1.65e6	1.67e6	1.36e6	1.35e6	inactive
29	Tak1	DRSC20390	1.28e6	1.60e6	1.14e6	1.22e6	inactive
30	Tak1	DRSC20561	1.63e6	1.65e6	1.09e6	1.23e6	inactive
31	Tak1	DRSC20562	1.83e6	1.88e6	1.16e6	1.33e6	inactive
32	Rrp42	DRSC07161	1.46e6	1.52e6	1.10e6	1.18e6	inactive
33	CG1958	DRSC18196	1.49e6	1.49e6	1.10e6	1.13e6	inactive
34	RpS3A	DRSC17168	8.83e5	9.05e5	6.76e5	7.82e5	active
35	PPP4R2r	DRSC18695	1.40e6	1.44e6	1.11e6	1.19e6	inactive
36	e(y)3	DRSC19450	1.65e6	1.72e6	9.96e5	1.13e6	inactive
37	CG14042 + SP555	DRSC02367	1.63e6	1.49e6	1.09e6	1.26e6	inactive
38	CG14042 + SP555	DRSC03428	1.60e6	1.55e6	1.19e6	1.38e6	inactive
39	CG6980	DRSC16162	1.54e6	1.52e6	1.17e6	1.22e6	inactive
40	CG4199	DRSC18519	5.40e5		7.73e5		inactive
41	CG15322	DRSC20680	1.38e6	1.38e6	7.52e5	8.06e5	inactive
42	Lcp4	DRSC07458	1.52e6	1.62e6	1.27e6	1.40e6	inactive
43	CG8372	DRSC03086	1.30e6	1.35e6	6.43e5	8.98e5	inactive
44	CG42586 + CG31775	DRSC01413	1.52e6	1.62e6	9.03e5	1.07e6	inactive
45	CG12594	DRSC14532	1.36e6	1.40e6	1.32e6	1.39e6	inactive
46	Trf5	DRSC00412	1.87e6	1.85e6	1.19e6	1.27e6	inactive
47	CG16935	DRSC06638	1.59e6	1.60e6	1.22e6	1.43e6	inactive
48	Spn88Eb	DRSC16093	1.57e6	1.63e6	1.23e6	1.36e6	inactive
49	Xpac	DRSC18730	1.64e6	1.64e6	1.06e6	1.20e6	inactive
50	CG31898	DRSC01019	1.40e6	1.49e6	9.71e5	1.11e6	inactive
51	CG13217	DRSC06339	1.70e6	1.69e6	1.37e6	1.48e6	inactive
52	beta4GalT7	DRSC14385	1.50e6	1.44e6	1.01e6	1.06e6	inactive
53	CG15571	DRSC18059	1.48e6	1.49e6	9.99e5	1.11e6	inactive
54	CG1231	DRSC08267	1.60e6	9.88e5	1.06e6	1.16e6	inactive
55	Dll	DRSC04610	1.60e6	1.64e6	1.37e6	1.31e6	inactive
56	Gnf1	DRSC12351	1.73e6	1.83e6	1.03e6	1.09e6	inactive
57	Fie	DRSC08158	1.29e6	1.44e6	1.17e6	1.13e6	inactive
58	E(spl)mgamma-HLH	DRSC16699	1.51e6	1.70e6	1.03e6	1.20e6	inactive
59	CG3552	DRSC10370	1.27e6	1.28e6	1.22e6	1.30e6	inactive
